This note sets out measurements from article PMC6553528, “An Interaction Network of the Human SEPT9 Established by Quantitative Mass Spectrometry” (G3: Genes|Genomes|Genetics, 2019).

No constants are given. Whether binding was seen depends on the method and setting. Binding seen in cells or lysates may run through a third protein. Here binding means that the protein was enriched with, or labelled near, the bait; the list need not be complete.

The labels stand for the following.
T1: TAP-SEPT9_i1 (human) (UniProt Q9UHD8)
T1 sequence: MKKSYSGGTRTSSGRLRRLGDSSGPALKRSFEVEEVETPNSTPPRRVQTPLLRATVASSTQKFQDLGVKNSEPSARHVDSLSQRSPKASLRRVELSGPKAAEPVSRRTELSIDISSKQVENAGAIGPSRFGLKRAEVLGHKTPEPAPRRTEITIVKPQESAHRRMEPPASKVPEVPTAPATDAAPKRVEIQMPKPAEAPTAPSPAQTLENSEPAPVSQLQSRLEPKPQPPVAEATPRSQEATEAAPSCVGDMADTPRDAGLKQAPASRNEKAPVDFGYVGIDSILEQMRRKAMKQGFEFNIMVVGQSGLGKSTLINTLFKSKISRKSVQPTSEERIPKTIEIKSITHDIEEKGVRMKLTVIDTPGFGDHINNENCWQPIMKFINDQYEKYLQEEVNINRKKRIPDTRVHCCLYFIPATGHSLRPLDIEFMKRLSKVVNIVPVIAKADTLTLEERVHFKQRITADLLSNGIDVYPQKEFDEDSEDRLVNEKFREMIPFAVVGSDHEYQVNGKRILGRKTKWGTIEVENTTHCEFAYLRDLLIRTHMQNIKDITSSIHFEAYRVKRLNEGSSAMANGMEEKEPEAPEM

B1: Ras GTPase-activating protein 2 (protein, UniProt Q15283 1-850)
chain: MAAAAPAAAAASSEAPAASATAEPEAGDQDSREVRVLQSLRGKICEAKNLLPYLGPHKMRDCFCTINLDQEEVYRTQVVEKSLSPFFSEEFYFEIPRTFQYLSFYVYDKNVLQRDLRIGKVAIKKEDLCNHSGKETWFSLQPVDSNSEVQGKVHLELKLNELITENGTVCQQLVVHIKACHGLPLINGQSCDPYATVSLVGPSRNDQKKTKVKKKTSNPQFNEIFYFEVTRSSSYTRKSQFQVEEEDIEKLEIRIDLWNNGNLVQDVFLGEIKVPVNVLRTDSSHQAWYLLQPRDNGNKSSKTDDLGSLRLNICYTEDYVLPSEYYGPLKTLLLKSPDVQPISASAAYILSEICRDKNDAVLPLVRLLLHHDKLVPFATAVAELDLKDTQDANTIFRGNSLATRCLDEMMKIVGGHYLKVTLKPILDEICDSSKSCEIDPIKLKEGDNVENNKENLRYYVDKLFNTIVKSSMSCPTVMCDIFYSLRQMATQRFPNDPHVQYSAVSSFVFLRFFAVAVVSPHTFHLRPHHPDAQTIRTLTLISKTIQTLGSWGSLSKSKSSFKETFMCEFFKMFQEEGYIIAVKKFLDEISSTETKESSGTSEPVHLKEGEMYKRAQGRTRIGKKNFKKRWFCLTSRELTYHKQPGSKDAIYTIPVKNILAVEKLEESSFNKKNMFQVIHTEKPLYVQANNCVEANEWIDVLCRVSRCNQNRLSFYHPSVYLNGNWLCCQETGENTLGCKPCTAGVPADIQIDIDEDRETERIYSLFTLSLLKLQKMEEACGTIAVYQGPQKEPDDYSNFVIEDSVTTFKTIQQIKSIIEKLDEPHEKYRKKRSSSAKYGSKENPIVGKAS
B2: Septin-8 (protein, UniProt Q92599 1-483)
chain: MAATDLERFSNAEPEPRSLSLGGHVGFDSLPDQLVSKSVTQGFSFNILCVGETGIGKSTLMNTLFNTTFETEEASHHEACVRLRPQTYDLQESNVQLKLTIVDAVGFGDQINKDESYRPIVDYIDAQFENYLQEELKIRRSLFDYHDTRIHVCLYFITPTGHSLKSLDLVTMKKLDSKVNIIPIIAKADTISKSELHKFKIKIMGELVSNGVQIYQFPTDDEAVAEINAVMNAHLPFAVVGSTEEVKVGNKLVRARQYPWGVVQVENENHCDFVKLREMLIRVNMEDLREQTHSRHYELYRRCKLEEMGFQDSDGDSQPFSLQETYEAKRKEFLSELQRKEEEMRQMFVNKVKETELELKEKERELHEKFEHLKRVHQEEKRKVEEKRRELEEETNAFNRRKAAVEALQSQALHATSQQPLRKDKDKKNRSDIGAHQPGMSLSSSKVMMTKASVEPLNCSSWWPAIQCCSCLVRDATWREGFL
B3: RNA-binding protein 27 (protein, UniProt Q9P2N5 1-1060)
chain: MLIEDVDALKSWLAKLLEPICDADPSALANYVVALVKKDKPEKELKAFCADQLDVFLQKETSGFVDKLFESLYTKNYLPLLEPVKPEPKPLVQEKEEIKEEVFQEPAEEERDGRKKKYPSPQKTRSESSERRTREKKREDGKWRDYDRYYERNELYREKYDWRRGRSKSRSKSRGLSRSRSRSRGRSKDRDPNRNVEHRERSKFKSERNDLESSYVPVSAPPPNSSEQYSSGAQSIPSTVTVIAPAHHSENTTESWSNYYNNHSSSNSFGRNLPPKRRCRDYDERGFCVLGDLCQFDHGNDPLVVDEVALPSMIPFPPPPPGLPPPPPPGMLMPPMPGPGPGPGPGPGPGPGPGPGPGHSMRLPVPQGHGQPPPSVVLPIPRPPITQSSLINSRDQPGTSAVPNLASVGTRLPPPLPQNLLYTVSERQPMYSREHGAAASERLQLGTPPPLLAARLVPPRNLMGSSIGYHTSVSSPTPLVPDTYEPDGYNPEAPSITSSGRSQYRQFFSRTQTQRPNLIGLTSGDMDVNPRAANIVIQTEPPVPVSINSNITRVVLEPDSRKRAMSGLEGPLTKKPWLGKQGNNNQNKPGFLRKNQYTNTKLEVKKIPQELNNITKLNEHFSKFGTIVNIQVAFKGDPEAALIQYLTNEEARKAISSTEAVLNNRFIRVLWHRENNEQPTLQSSAQLLLQQQQTLSHLSQQHHHLPQHLHQQQVLVAQSAPSTVHGGIQKMMSKPQTSGAYVLNKVPVKHRLGHAGGNQSDASHLLNQSGGAGEDCQIFSTPGHPKMIYSSSNLKTPSKLCSGSKSHDVQEVLKKKQEAMKLQQDMRKKRQEVLEKQIECQKMLISKLEKNKNMKPEERANIMKTLKELGEKISQLKDELKTSSAVSTPSKVKTKTEAQKELLDTELDLHKRLSSGEDTTELRKKLSQLQVEAARLGILPVGRGKTMSSQGRGRGRGRGGRGRGSLNHMVVDHRPKALTVGGFIEEEKEDLLQHFSTANQGPKFKDRRLQISWHKPKVPSISTETEEEEVKEEETETSDLFLPDDDDEDEDEYESRSWRR
B4: Lipase member I (protein, UniProt Q6XZB0 16-460)
chain: DNKRPCLEFSQLSVKDSFRDLFIPRIETILMMYTRNNLNCAEPLFEQNNSLNVNFNTQKKTVWLIHGYRPVGSIPLWLQNFVRILLNEEDMNVIVVDWSRGATTFIYNRAVKNTRKVAVSLSVHIKNLLKHGASLDNFHFIGVSLGAHISGFVGKIFHGQLGRITGLDPAGPRFSRKPPYSRLDYTDAKFVDVIHSDSNGLGIQEPLGHIDFYPNGGNKQPGCPKSIFSGIQFIKCNHQRAVHLFMASLETNCNFISFPCRSYKDYKTSLCVDCDCFKEKSCPRLGYQAKLFKGVLKERMEGRPLRTTVFLDTSGTYPFCTYYFVLSIIVPDKTMMDGSFSFKLLNQLGMIEEPRLYEKNKPFYKLQEVKILAQFYNDFVNISSIGLTYFQSSNLQCSTCTYKIQSLMLKSLTYPERPPLCRYNIVLKDREEVFLNPNTCTPKNT
B5: Aspartate aminotransferase, mitochondrial (protein, UniProt P00505 30-430)
chain: SSWWTHVEMGPPDPILGVTEAFKRDTNSKKMNLGVGAYRDDNGKPYVLPSVRKAEAQIAAKNLDKEYLPIGGLAEFCKASAELALGENSEVLKSGRFVTVQTISGTGALRIGASFLQRFFKFSRDVFLPKPTWGNHTPIFRDAGMQLQGYRYYDPKTCGFDFTGAVEDISKIPEQSVLLLHACAHNPTGVDPRPEQWKEIATVVKKRNLFAFFDMAYQGFASGDGDKDAWAVRHFIEQGINVCLCQSYAKNMGLYGERVGAFTMVCKDADEAKRVESQLKILIRPMYSNPPLNGARIAAAILNTPDLRKQWLQEVKVMADRIIGMRTQLVSNLKKEGSTHNWQHITDQIGMFCFTGLKPEQVERLIKEFSIYMTKDGRISVAGVTSSNVGYLAHAIHQVTK
B6: Protein LYRIC (protein, UniProt Q86UE4 1-582)
chain: MAARSWQDELAQQAEEGSARLREMLSVGLGFLRTELGLDLGLEPKRYPGWVILVGTGALGLLLLFLLGYGWAAACAGARKKRRSPPRKREEAAAVPAAAPDDLALLKNLRSEEQKKKNRKKLSEKPKPNGRTVEVAEGEAVRTPQSVTAKQPPEIDKKNEKSKKNKKKSKSDAKAVQNSSRHDGKEVDEGAWETKISHREKRQQRKRDKVLTDSGSLDSTIPGIENTITVTTEQLTTASFPVGSKKNKGDSHLNVQVSNFKSGKGDSTLQVSSGLNENLTVNGGGWNEKSVKLSSQISAGEEKWNSVSPASAGKRKTEPSAWSQDTGDANTNGKDWGRSWSDRSIFSGIGSTAEPVSQSTTSDYQWDVSRNQPYIDDEWSGLNGLSSADPNSDWNAPAEEWGNWVDEERASLLKSQEPIPDDQKVSDDDKEKGEGALPTGKSKKKKKKKKKQGEDNSTAQDTEELEKEIREDLPVNTSKTRPKQEKAFSLKTISTSDPAEVLVKNSQPIKTLPPATSTEPSVILSKSDSDKSSSQVPPILQETDKSKSNTKQNSVPPSQTKSETSWESPKQIKKKKKARRET
B7: Phostensin (protein, UniProt Q6NYC8 1-613)
chain: MATIPDWKLQLLARRRQEEASVRGREKAERERLSQMPAWKRGLLERRRAKLGLSPGEPSPVLGTVEAGPPDPDESAVLLEAIGPVHQNRFIRQERQQQQQQQQRSEELLAERKPGPLEARERRPSPGEMRDQSPKGRESREERLSPRETRERRLGIGGAQELSLRPLEARDWRQSPGEVGDRSSRLSEAWKWRLSPGETPERSLRLAESREQSPRRKEVESRLSPGESAYQKLGLTEAHKWRPDSRESQEQSLVQLEATEWRLRSGEERQDYSEECGRKEEWPVPGVAPKETAELSETLTREAQGNSSAGVEAAEQRPVEDGERGMKPTEGWKWTLNSGKAREWTPRDIEAQTQKPEPPESAEKLLESPGVEAGEGEAEKEEAGAQGRPLRALQNCCSVPSPLPPEDAGTGGLRQQEEEAVELQPPPPAPLSPPPPAPTAPQPPGDPLMSRLFYGVKAGPGVGAPRRSGHTFTVNPRRSVPPATPATPTSPATVDAAVPGAGKKRYPTAEEILVLGGYLRLSRSCLAKGSPERHHKQLKISFSETALETTYQYPSESSVLEELGPEPEVPSAPNPPAAQPDDEEDEEELLLLQPELQGGLRTKALIVDESCRR
B8: Septin-11 (protein, UniProt Q9NVA2 1-429)
chain: MAVAVGRPSNEELRNLSLSGHVGFDSLPDQLVNKSTSQGFCFNILCVGETGIGKSTLMDTLFNTKFESDPATHNEPGVRLKARSYELQESNVRLKLTIVDTVGFGDQINKDDSYKPIVEYIDAQFEAYLQEELKIKRSLFNYHDTRIHACLYFIAPTGHSLKSLDLVTMKKLDSKVNIIPIIAKADTIAKNELHKFKSKIMSELVSNGVQIYQFPTDEETVAEINATMSVHLPFAVVGSTEEVKIGNKMAKARQYPWGVVQVENENHCDFVKLREMLIRVNMEDLREQTHTRHYELYRRCKLEEMGFKDTDPDSKPFSLQETYEAKRNEFLGELQKKEEEMRQMFVMRVKEKEAELKEAEKELHEKFDLLKRTHQEEKKKVEDKKKELEEEVNNFQKKKAAAQLLQSQAQQSGAQQTKKDKDKKNASFT

The target of this test is T1, TAP-SEPT9_i1 (human). Description: affinity purification with mass spectrometry; TAP-SEPT9 captured on human IgG-Sepharose from the cytoplasmic lysate of SILAC-labelled 1306 fibroblasts (overnight, 4 degrees); mixing after purification with the eluate of unlabelled GFP-SEPT9 cells as control; three replicates; hits by LOG2(H/L)>2 and Significance B.
Regarding B1, the binding result is reported as “binds”.

Take B2: the binding entry is recorded as “binds”.

With B3, the binding entry was “binds”. For B4, the binding entry is given as “binds”.

Turning to B5, the binding result is recorded as “binds”. Take B6: the binding result is listed as “binds”. The result for B7 reads “binds”; that for B8, “binds”.
